# Laboratory results reported in the supplement of paper PMC12067093, “Discovery and optimisation of a covalent ligand for TRIM25 and its application to targeted protein ubiquitination” (Chemical Science, 2025).
# Protein sequences, listed by entry. Tags and fused reporters are not part of them. Lines headed by an entry give the natural chain unless they say otherwise; changes in a name come on top.
# UniProt Q5VZF2: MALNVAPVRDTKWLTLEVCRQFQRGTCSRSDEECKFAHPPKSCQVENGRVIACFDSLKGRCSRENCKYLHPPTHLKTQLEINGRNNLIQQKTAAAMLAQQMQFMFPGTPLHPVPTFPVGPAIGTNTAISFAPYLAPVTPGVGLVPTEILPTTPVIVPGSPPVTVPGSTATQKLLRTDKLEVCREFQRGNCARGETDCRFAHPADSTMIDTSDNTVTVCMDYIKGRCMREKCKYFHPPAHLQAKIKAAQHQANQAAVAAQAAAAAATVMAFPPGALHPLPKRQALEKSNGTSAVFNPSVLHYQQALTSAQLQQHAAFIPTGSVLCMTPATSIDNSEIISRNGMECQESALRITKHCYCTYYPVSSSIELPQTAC
# UniProt Q13164: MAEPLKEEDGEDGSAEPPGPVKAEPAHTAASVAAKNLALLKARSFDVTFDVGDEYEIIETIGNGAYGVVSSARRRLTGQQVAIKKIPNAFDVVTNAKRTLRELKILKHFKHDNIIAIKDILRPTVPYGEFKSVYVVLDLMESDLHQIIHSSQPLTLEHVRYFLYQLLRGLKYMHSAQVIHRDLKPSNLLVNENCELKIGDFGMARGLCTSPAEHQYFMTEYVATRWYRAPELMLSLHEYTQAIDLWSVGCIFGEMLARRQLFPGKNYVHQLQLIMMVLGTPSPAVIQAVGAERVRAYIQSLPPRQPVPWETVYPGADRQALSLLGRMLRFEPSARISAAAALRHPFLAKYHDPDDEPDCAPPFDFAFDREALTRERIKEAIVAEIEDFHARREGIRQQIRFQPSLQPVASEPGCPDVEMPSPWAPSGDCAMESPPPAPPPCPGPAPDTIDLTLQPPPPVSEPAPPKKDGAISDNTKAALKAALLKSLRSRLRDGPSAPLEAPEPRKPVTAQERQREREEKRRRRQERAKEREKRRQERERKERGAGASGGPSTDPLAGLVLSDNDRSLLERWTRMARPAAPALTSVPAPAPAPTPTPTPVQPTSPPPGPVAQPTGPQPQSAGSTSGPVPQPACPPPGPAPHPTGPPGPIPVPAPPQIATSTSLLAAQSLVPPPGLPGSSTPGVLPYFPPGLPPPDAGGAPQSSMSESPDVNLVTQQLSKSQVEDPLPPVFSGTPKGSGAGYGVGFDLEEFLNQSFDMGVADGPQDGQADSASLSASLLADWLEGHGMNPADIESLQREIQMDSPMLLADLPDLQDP
# UniProt Q16539, whole entry, looked up: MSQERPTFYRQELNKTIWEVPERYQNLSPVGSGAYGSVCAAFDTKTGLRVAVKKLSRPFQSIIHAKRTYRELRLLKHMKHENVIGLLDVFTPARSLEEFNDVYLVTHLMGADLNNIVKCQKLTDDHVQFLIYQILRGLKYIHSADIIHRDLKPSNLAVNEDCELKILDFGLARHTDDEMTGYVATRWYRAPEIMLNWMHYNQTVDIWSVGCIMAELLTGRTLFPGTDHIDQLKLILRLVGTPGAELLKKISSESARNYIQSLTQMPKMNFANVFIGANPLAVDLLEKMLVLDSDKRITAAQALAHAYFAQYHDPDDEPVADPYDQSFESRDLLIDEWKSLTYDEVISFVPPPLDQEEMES
# UniProt Q9NR56: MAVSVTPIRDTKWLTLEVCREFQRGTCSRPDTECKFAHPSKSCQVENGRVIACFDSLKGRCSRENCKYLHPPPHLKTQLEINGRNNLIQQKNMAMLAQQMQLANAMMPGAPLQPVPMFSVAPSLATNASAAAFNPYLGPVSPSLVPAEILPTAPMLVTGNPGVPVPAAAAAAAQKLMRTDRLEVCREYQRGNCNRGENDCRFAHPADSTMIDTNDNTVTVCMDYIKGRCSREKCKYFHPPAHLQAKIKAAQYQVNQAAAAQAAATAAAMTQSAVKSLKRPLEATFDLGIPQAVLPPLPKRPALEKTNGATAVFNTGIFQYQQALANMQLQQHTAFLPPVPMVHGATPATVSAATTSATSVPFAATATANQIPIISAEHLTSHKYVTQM
# UniProt Q3KQU3: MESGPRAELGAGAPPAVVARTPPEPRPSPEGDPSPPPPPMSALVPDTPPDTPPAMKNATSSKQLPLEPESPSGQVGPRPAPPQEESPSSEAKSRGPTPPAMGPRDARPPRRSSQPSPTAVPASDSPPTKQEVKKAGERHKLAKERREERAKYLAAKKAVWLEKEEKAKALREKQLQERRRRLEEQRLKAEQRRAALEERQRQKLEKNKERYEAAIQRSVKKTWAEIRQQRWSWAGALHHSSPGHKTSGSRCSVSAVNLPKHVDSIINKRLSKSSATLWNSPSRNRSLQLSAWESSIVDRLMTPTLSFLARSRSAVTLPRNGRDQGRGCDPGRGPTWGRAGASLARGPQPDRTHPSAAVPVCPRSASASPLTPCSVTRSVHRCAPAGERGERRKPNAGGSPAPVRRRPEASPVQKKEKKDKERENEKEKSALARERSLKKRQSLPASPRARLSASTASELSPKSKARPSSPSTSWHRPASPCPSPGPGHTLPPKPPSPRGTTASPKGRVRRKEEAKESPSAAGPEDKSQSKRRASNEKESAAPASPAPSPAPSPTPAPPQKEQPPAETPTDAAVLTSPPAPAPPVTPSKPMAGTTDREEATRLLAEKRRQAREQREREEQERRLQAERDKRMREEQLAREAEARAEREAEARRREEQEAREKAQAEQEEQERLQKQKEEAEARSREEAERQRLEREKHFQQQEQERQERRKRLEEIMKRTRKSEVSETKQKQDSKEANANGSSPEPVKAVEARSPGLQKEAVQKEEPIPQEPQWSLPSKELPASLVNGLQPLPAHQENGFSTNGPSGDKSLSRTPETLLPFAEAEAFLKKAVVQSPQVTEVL
# UniProt Q9NQ29: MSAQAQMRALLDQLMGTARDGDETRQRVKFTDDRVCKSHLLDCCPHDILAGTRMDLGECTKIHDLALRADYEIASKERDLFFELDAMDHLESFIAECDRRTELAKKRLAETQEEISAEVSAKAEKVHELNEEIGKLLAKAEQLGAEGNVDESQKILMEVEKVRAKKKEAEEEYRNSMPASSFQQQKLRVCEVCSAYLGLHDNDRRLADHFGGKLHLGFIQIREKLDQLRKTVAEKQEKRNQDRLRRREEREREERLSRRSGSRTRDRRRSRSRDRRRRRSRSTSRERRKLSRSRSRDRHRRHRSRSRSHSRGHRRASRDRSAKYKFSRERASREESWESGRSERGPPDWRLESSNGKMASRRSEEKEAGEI
# UniProt P56192: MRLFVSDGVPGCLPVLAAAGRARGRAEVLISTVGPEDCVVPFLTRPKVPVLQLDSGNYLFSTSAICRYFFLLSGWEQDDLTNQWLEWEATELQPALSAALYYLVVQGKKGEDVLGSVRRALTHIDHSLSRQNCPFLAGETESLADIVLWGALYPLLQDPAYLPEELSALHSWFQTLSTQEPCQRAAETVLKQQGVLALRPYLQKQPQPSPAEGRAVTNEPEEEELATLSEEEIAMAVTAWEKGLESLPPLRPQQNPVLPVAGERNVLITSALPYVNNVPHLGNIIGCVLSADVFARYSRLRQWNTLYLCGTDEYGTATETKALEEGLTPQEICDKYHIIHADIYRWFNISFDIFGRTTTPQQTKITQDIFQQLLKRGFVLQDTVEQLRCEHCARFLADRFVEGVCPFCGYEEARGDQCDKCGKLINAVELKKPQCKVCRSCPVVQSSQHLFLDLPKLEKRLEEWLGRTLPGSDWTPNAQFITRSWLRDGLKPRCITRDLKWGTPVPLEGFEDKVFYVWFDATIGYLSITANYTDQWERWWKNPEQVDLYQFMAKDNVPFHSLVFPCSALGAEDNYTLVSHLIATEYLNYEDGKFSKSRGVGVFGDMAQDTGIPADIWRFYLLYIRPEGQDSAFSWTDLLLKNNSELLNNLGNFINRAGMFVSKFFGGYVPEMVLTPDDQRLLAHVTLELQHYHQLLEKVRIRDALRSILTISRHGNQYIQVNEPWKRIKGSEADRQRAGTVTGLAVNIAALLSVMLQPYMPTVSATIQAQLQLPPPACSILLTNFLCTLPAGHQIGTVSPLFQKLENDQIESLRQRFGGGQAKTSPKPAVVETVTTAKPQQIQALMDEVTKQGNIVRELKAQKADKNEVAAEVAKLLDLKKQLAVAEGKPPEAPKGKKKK
# UniProt Q13233: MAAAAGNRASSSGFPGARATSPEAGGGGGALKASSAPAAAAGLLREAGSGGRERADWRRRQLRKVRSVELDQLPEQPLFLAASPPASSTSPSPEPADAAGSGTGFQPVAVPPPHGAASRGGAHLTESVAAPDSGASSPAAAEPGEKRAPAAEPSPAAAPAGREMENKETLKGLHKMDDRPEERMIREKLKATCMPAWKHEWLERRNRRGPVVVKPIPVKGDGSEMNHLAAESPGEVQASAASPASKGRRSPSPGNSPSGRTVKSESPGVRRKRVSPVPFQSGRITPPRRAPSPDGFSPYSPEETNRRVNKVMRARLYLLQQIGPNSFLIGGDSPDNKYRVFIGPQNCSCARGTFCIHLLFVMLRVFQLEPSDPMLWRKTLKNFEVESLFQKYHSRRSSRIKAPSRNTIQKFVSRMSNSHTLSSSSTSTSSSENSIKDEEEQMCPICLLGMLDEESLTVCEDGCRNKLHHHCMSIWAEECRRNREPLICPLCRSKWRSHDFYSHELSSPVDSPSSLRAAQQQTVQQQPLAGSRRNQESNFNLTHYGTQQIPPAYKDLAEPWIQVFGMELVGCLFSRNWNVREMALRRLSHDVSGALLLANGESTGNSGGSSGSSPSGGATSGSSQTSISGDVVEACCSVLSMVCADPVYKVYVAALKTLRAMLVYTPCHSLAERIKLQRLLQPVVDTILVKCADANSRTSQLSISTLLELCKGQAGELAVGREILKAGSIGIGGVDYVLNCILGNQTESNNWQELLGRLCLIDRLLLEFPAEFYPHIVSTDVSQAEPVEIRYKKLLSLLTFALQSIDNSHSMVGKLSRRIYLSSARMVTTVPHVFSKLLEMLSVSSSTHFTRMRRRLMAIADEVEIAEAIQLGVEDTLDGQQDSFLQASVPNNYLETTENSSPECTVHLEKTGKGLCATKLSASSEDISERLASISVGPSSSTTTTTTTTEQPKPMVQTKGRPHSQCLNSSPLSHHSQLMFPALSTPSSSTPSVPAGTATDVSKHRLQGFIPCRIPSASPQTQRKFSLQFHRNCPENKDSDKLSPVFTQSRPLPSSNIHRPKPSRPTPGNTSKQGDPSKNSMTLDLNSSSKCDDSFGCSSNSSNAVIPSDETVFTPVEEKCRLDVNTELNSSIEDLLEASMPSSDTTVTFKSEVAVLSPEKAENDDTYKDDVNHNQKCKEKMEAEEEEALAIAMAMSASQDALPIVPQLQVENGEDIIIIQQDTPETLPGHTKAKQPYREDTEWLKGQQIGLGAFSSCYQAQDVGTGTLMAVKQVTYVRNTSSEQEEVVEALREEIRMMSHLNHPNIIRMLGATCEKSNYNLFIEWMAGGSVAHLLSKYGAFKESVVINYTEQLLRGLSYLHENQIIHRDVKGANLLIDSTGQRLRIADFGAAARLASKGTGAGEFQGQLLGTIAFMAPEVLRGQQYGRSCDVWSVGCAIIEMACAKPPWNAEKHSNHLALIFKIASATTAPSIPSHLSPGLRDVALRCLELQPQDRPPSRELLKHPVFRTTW
# UniProt P43243: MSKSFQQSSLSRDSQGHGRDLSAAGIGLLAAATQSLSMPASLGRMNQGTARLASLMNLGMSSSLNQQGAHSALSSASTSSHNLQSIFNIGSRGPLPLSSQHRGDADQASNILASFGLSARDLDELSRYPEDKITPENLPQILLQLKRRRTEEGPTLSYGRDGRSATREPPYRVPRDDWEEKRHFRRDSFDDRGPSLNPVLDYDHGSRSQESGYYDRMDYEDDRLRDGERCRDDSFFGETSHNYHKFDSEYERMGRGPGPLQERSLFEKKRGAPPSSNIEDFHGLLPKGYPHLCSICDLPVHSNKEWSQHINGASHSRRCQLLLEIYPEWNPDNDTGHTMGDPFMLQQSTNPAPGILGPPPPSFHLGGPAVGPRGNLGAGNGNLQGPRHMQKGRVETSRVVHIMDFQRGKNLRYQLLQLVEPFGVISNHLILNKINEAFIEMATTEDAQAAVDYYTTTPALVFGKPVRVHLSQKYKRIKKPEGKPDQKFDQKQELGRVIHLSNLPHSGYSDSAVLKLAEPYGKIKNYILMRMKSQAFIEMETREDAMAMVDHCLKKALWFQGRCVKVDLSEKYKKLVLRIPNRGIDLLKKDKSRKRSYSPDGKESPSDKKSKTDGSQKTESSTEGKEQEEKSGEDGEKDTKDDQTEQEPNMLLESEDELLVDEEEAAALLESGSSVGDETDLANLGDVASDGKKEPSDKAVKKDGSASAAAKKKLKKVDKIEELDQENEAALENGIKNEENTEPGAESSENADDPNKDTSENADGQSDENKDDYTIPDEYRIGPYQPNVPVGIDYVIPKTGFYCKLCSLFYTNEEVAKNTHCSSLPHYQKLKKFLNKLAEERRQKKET
# The other results are listed elsewhere or left out.
# Compound: Cc1cc(ccc1-c1ccccc1)C(=O)N1CCCN(CC1)C(=O)CCl [compound 10]
# Assay: probe-labelled cysteine peptide fold change vs DMSO (competition) (log2 fold change); higher = less target engagement (more negative = stronger competition)
# Details: THP-1, incubation time: 4 h
# 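Note: competitive profiling in live THP-1 cells: cysteine peptides tagged with an iodoacetamide desthiobiotin (IA-DTB) probe, intensity after compound treatment relative to DMSO-treated cells.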
Target,probe-labelled cysteine peptide fold change (10 µM),probe-labelled cysteine peptide fold change (50 µM)
MAPK9_P45984_213_ENVDIWSVGCIMGELVK (UniProt P45984),0.102,0.08
MBNL2_Q5VZF2_43_SCQVENGR (UniProt Q5VZF2),-0.15,-0.198
MAPK7_Q13164_359_YHDPDDEPDCAPPFDFAFDR (UniProt Q13164),-0.303,0.169
MADD_Q8WXG6_1521_ELYYCVK (UniProt Q8WXG6),0.00475,-0.341
MAPK12_P53778_42_DLQPVGSGAYGAVCSAVDGR (UniProt P53778),-0.186,-0.0208
MAST3_O60307_285_LLECLEFDPEEFYHLLEAAEGHAR (UniProt O60307),-0.393,-0.385
MAP4K1_Q92918_335_SSSLGIPDADCCR (UniProt Q92918),-0.294,-1.09
LY75_O60449_597_AVTFSNWNFLEPASPGGCVAMSTGK (UniProt O60449),-0.107,0.0449
MACROD1_Q9BQ69_246_SCYLSSLDLLLEHR (UniProt Q9BQ69),0.141,-0.163
LY75_O60449_922_TWLIDLGKPTDCSTK (UniProt O60449),-0.0612,0.0278
MAPK14_Q16539_162_PSNLAVNEDCELK (UniProt Q16539),-0.127,0.34
MACF1_Q9UPN3_4206_FEQLCLQQQEK (UniProt Q9UPN3),0.151,0.0747
MAPK14_Q16539_162_DLKPSNLAVNEDCELK (UniProt Q16539),-0.0482,-0.128
MACF1_Q9UPN3_3315_TVSLTVCSAVK (UniProt Q9UPN3),-0.302,-0.418
MBNL1_Q9NR56_185_TDRLEVCR (UniProt Q9NR56),0.00019,-0.0653
LY75_O60449_1060_IPENFFEEESRYHCALILNLQK (UniProt O60449),-0.177,-0.421
MAN2A1_Q16706_840_IYSEVTCFFDHVTHR (UniProt Q16706),0.14,0.295
MACF1_Q9UPN3_1522_AYHDLCDGSANQLQQLQSQLAHQTEQK (UniProt Q9UPN3),0.239,-0.0731
MAP3K4_Q9Y6R4_596_CSAVSWEELK (UniProt Q9Y6R4),0.229,0.498
MACO1_Q8N5G2_315_EDSCTASSK (UniProt Q8N5G2),-0.144,-0.0445
MBTPS2_O43462_386_SSSSSFCIIPSLETHTR (UniProt O43462),0.093,0.0827
MCCC2_Q9HCC0_131_VSGVECMIIANDATVK (UniProt Q9HCC0),0.247,0.177
MAP3K2_Q9Y2U5_512_LQTICLSGTGMK (UniProt Q9Y2U5),-0.0533,0.105

Target,probe-labelled cysteine peptide fold change (10 µM),probe-labelled cysteine peptide fold change (50 µM)
MAP7D1_Q3KQU3_251_CSVSAVNLPK (UniProt Q3KQU3),0.00205,-0.316
MAP2K1_Q02750_277_ELELMFGCQVEGDAAETPPRPR (UniProt Q02750),-0.297,0.0194
MAP3K20_Q9NYL2_571_SDSSADCQWLDTLR (UniProt Q9NYL2),-0.155,-0.343
LUC7L_Q9NQ29_97_ERDLFFELDAMDHLESFIAECDR (UniProt Q9NQ29),-0.026,0.216
LYAR_Q9NX58_30_NCECLSCIDCGK (UniProt Q9NX58),0.0738,0.144
MAGI3_Q5TCQ9_1279_AGSGQDQCR (UniProt Q5TCQ9),-0.0196,0.446
MAP4_P27816-4_243_LSFCEDQNAQDR (UniProt P27816),-0.0898,-0.244
MAP2K7_O14733_280_SAGCAAYMAPER (UniProt O14733),-0.121,-0.775
MAP1S_Q66K74_51_SWDVDPGVCNLDEQLK (UniProt Q66K74),0.00683,-0.0249
MACF1_Q9UPN3_666_LETQYCK (UniProt Q9UPN3),-0.142,0.0191
MAP3K4_Q9Y6R4_1581_DFLSHCLESDPK (UniProt Q9Y6R4),0.0195,-0.0136
LYST_Q99698_504_CEYSHFMHHHR (UniProt Q99698),-0.0365,-0.0129
MAZ_P56270_371_CEAAFATK (UniProt P56270),0.218,0.119
MARS_P56192_309_QWNTLYLCGTDEYGTATETK (UniProt P56192),-0.0161,0.0949
LYPLA2_O95372_213_TYPGVMHSSCPQEMAAVK (UniProt O95372),0.0019,-0.274
MAPK7_Q13164_194_DLKPSNLLVNENCELK (UniProt Q13164),-0.251,-0.627
LUC7L_Q9NQ29_43+44_SHLLDCCPHDILAGTR (UniProt Q9NQ29),0.195,-0.258
MACF1_Q9UPN3_2629_KEGLLTNEAVLSPGMMHGIVDPENCR (UniProt Q9UPN3),-0.17,-0.249
MARS_P56192_12_LFVSDGVPGCLPVLAAAGR (UniProt P56192),-0.0423,0.0818
MAPRE2_Q15555_279_LREIELLCQEHGQENDDLVQR (UniProt Q15555),0.0318,-0.133
MAVS_Q7Z434_33_NFSNFCNVDVVEILPYLPCLTAR (UniProt Q7Z434),0.17,0.185
MAT2A_P31153_104_TCNVLVALEQQSPDIAQGVHLDR (UniProt P31153),0.185,0.228
MAP3K1_Q13233_488_NREPLICPLCR (UniProt Q13233),0.0962,0.286

# Quoted from the listing:
# MAGI3_Q5TCQ9_1279_AGSGQDQCR (UniProt Q5TCQ9) – probe-labelled cysteine peptide fold change (50 µM): 0.446
# MARS_P56192_309_QWNTLYLCGTDEYGTATETK (UniProt P56192) – probe-labelled cysteine peptide fold change (10 µM): -0.0161
# MAPK7_Q13164_194_DLKPSNLLVNENCELK (UniProt Q13164) – probe-labelled cysteine peptide fold change (10 µM): -0.251

# Carrying on:

Target,probe-labelled cysteine peptide fold change (10 µM),probe-labelled cysteine peptide fold change (50 µM)
MARCH5_Q9NX47_46_WVHQACLQR (UniProt Q9NX47),-0.0838,-0.181
MAPK3_P27361_82_ISPFEHQTYCQR (UniProt P27361),-0.00572,0.142
MAD1L1_Q9Y6D9_134_QCQQNLDAASK (UniProt Q9Y6D9),-0.306,-0.116
MBNL1_Q9NR56_200_GENDCR (UniProt Q9NR56),0.0644,-0.0227
MACF1_Q9UPN3_2629_EGLLTNEAVLSPGMMHGIVDPENCR (UniProt Q9UPN3),0.115,0.195
MAP2K2_P36507_384_RSEVEEVDFAGWLCK (UniProt P36507),-0.16,-0.341
MATR3_P43243_293+296_GYPHLCSICDLPVHSNK (UniProt P43243),0.125,0.0146
MAP3K4_Q9Y6R4_752_LFCDIAGMLLK (UniProt Q9Y6R4),0.245,0.479
MATR3_P43243_552_EDAMAMVDHCLKK (UniProt P43243),0.0281,-0.274
MAEA_Q7L5Y9_61_TLSGCPAVDSVVSLLDGVVEK (UniProt Q7L5Y9),0.184,-0.0988
MAN2B2_Q9Y2E5_697_LTHVPQGHDGELLCHR (UniProt Q9Y2E5),-0.375,-0.113
MBD2_Q9UBB5_359_NPAVWLNTSQPLCK (UniProt Q9UBB5),0.077,-0.266
MAP3K1_Q13233_1012_LQGFIPCR (UniProt Q13233),-0.192,-0.389
MAP7D1_Q3KQU3-4_329_DQAVPVCPR (UniProt Q3KQU3),-0.267,-0.146
MAN2B1_O00754_268+273_NLCWDVLCVDQPLVEDPR (UniProt O00754),-0.169,0.12
MAP4_P27816_67_KKPCSETSQIEDTPSSKPTLLANGGHGVEGSDTTGSPTEFLEEK (UniProt P27816),-0.0589,-0.83
LZTR1_Q8N653_667_AYLEGAGAEFCDITLLLDGHPRPAHK (UniProt Q8N653),-0.0805,0.0304
LYST_Q99698_808_DLFLSCNGVSQIIELNCLNGIR (UniProt Q99698),-0.303,-0.285
MARF1_Q9Y4F3_590_ELCETK (UniProt Q9Y4F3),-0.156,-0.403
LYST_Q99698_20_LCNAVVQR (UniProt Q99698),0.042,0.0748
LY75_O60449_83_CLGLDITK (UniProt O60449),-0.168,-0.105
